Results are given in words; binding and its absence hold for the method and conditions named. In cells and extracts the contact can be indirect. Some binding calls cover weakened binding; strength is not graded here. Where a sequence is shown, tags or fusion partners need not be part of it.
Target: T1, Flag-tagged N-myc (and STAT) interactor (NMI) (human) (UniProt Q13287)
T1 sequence: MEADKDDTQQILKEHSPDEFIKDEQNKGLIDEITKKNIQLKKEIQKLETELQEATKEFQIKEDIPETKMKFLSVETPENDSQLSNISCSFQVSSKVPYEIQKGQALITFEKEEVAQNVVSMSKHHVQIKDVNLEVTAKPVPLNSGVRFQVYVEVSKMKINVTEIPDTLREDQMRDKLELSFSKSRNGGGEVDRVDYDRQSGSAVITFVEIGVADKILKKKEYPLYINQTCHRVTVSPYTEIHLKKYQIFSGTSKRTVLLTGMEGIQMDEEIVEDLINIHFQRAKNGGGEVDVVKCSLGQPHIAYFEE
Experiment: co-IP; U251 cells stably overexpressing Flag-tagged NMI and STAT1 (α or β) via lentivirus; NP-40 lysis buffer (50 mM Tris-HCl pH 7.5, 150 mM NaCl, 1% NP-40); anti-Flag M2 magnetic beads overnight at 4°C, four washes; blot with STAT1 antibody

By UniProt entry, the sequences of proteins in these tests, tags left out. Where a name states a change or a piece, a line headed by the entry shows the natural chain unless it says otherwise. Residues count along the entry.
UniProt P42224, residues 1-712: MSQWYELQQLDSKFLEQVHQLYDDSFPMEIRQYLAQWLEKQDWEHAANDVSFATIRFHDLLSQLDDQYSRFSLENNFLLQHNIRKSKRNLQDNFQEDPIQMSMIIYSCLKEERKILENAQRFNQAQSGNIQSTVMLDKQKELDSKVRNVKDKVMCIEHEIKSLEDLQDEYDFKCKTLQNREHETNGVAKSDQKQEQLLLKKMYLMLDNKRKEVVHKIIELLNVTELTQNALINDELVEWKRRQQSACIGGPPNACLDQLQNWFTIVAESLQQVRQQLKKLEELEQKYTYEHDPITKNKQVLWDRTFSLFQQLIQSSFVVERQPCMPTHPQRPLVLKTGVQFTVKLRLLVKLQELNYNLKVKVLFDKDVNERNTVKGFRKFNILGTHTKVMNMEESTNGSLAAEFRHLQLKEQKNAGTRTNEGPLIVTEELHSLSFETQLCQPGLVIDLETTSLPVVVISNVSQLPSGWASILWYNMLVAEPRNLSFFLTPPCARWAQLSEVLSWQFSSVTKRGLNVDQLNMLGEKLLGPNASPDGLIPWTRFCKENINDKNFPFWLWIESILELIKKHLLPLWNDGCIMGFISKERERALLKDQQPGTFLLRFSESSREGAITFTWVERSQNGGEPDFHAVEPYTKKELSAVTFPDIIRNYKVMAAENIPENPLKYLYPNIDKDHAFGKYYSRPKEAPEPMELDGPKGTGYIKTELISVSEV

## STAT1β (STAT1 isoform β, transcript variant V2) (from UniProt P42224-2 1-712)
  binding: binds

From PMC4467123
